Source: publication PMC2483412
No constants are given. Whether binding was seen depends on the method and setting. In cells and extracts the contact can be indirect. Some entries that bind do so weakly or less than the wild type.

Amino acid sequences for entries named in this document (tags omitted).
UniProt Q96GD4: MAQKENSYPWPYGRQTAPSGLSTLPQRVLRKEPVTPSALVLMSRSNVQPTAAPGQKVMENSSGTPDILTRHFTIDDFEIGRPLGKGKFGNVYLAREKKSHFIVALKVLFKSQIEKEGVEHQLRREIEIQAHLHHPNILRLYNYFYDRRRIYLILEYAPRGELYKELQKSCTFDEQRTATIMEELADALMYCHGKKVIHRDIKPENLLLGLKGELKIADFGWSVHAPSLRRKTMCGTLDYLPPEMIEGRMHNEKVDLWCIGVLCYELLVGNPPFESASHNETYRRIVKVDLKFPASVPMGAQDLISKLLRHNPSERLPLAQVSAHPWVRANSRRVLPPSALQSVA

Target: T1, endogenous RasGAP of human tumor cell lines (human (endogenous in HeLa, HCT116, Panc 10.05)) (UniProt P20936)
T1 sequence: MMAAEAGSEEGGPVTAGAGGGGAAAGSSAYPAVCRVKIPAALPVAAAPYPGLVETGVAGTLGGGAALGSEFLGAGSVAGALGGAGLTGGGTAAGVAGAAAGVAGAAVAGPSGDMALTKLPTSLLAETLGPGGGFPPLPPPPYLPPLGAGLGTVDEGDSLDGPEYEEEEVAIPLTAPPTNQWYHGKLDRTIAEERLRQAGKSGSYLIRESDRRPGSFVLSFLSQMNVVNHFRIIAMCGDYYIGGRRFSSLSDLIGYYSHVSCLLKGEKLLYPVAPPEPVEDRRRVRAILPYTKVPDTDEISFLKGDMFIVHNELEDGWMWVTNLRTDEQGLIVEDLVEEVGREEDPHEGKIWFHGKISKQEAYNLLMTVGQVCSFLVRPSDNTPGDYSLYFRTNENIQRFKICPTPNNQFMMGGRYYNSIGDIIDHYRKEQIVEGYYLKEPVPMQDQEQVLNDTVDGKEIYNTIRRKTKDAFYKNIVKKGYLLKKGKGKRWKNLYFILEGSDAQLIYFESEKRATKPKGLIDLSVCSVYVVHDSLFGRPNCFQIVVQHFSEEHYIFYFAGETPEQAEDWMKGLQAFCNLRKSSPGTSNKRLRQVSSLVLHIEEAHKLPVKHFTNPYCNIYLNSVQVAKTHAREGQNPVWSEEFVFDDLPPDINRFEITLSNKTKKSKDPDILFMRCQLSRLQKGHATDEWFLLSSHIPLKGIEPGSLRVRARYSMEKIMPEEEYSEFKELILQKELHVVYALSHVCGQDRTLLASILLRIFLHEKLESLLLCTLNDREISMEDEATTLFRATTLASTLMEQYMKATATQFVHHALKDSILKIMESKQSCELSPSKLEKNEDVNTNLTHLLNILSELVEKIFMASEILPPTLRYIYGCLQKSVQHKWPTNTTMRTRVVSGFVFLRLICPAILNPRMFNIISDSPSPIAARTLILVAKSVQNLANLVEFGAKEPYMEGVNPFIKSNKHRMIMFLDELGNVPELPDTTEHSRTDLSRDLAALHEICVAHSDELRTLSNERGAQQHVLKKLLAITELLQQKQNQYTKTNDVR
Assay: pull-down; RasGAP captured on a p62DOK-derived, RasGAP SH2-interacting peptide coupled to CNBr-sepharose from 300 µg lysate of HeLa, HCT116 or Panc 10.05 cells expressing control aptamer C6 or RG27, 2 h at 4°C; blots for RasGAP and Aurora B

binding: binds
Substance: Aurora B kinase (from UniProt Q96GD4 1-344) (enzyme)
